Source: PubChem BioAssay
Inconclusive results, whose numbers are uncertain, are shown with a selection of clear calls. Potencies of inconclusive entries are doubtful fits and often do not repeat. Activity calls are given as the source filed them. Unless noted, no cut-off is given here; in the data, nearly all actives have AC50 up to about 26 µM.

Tests used:
[1] = growth inhibition of DIPG glioma cells, dose response, cell-based, SU-DIPG-XVII, MIPE5.0, CellTiter-Glo, qHTS (AID 1347060); settings: SU-DIPG-XVII viability, CellTiter-Glo ATP luminescence;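 for AC50: cells exposed to compound for 48 hours before viability readout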
[2] = growth inhibition of DIPG glioma cells, dose response, cell-based, SU-DIPG-XIII, MIPE5.0, CellTiter-Glo, qHTS (AID 1347064; cut-off not given, nearly all actives have AC50 up to about 23 µM;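 for AC50: cells exposed to compound for 48 hours before the viability read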); settings: SU-DIPG-XIII viability, CellTiter-Glo ATP luminescence
[3] = viability loss in pontine glioma line – cell-based, SU-DIPG-XXV, MIPE5.0, CellTiter-Glo, qHTS, dose response (AID 1347065); settings: CellTiter-Glo ATP luminescence;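 note: cells exposed to compound for 48 hours before ATP readout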
[4] = JHH-DIPG-1 glioma cell viability, MIPE5.0 library, CellTiter-Glo luminescence, qHTS (AID 1347067); settings: JHH-DIPG-1 glioma viability, CellTiter-Glo ATP luminescence;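 note: cells exposed to compound for 48 hours before readout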
[5] = SU-DIPG-XXV glioma cell viability, MIPE5.0 library, qHTS (AID 1347068; cut-off not given, nearly all actives have IC50 up to about 30 µM;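 for IC50: cells exposed to compound for 48 hours before viability readout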)

Row | Compound | AC50 [1] | AC50 [2] | AC50 [3] | AC50 [4] | outcome [5] | IC50 [5] | outcome [1] | outcome [2] | outcome [3] | outcome [4]
1 | O=C(C(c1ccccc1)c1ccccc1)N1CCN(CC(O)COc2cccc3ncccc23)CC1 (stereo not given) | inconclusive: 0.295 µM [cytotoxic] | inconclusive: 16.6 µM [cytotoxic] | inconclusive: 18.6 µM [cytotoxic] | inconclusive: 26.3 µM [cytotoxic] | inactive | – | – | – | – | –
2 | Cc1ccc(-c2ccc3c(ccc4sc5c(c43)NC[C@@H](C)NC5=O)n2)cn1 | inconclusive: 9.34 µM [cytotoxic] | inconclusive: 4.68 µM [cytotoxic] | inconclusive: 0.332 µM [cytotoxic] | inconclusive: 6.61 µM [cytotoxic] | – | inconclusive: 33.2 µM [cytotoxic] | – | – | – | –
3 | CC[C@@H]1[C@H](F)C(=O)N[C@@H]1COc1nccc2cc(C(N)=O)c(OC)cc12 | inconclusive: 37.2 µM [cytotoxic] | inconclusive: 46.8 µM [cytotoxic] | inconclusive: 23.5 µM [cytotoxic] | inconclusive: 16.6 µM [cytotoxic] | inactive | – | – | – | – | –
4 | CCC(=O)OCC(=O)C1(OC(=O)CC)C(C)CC2C3CCC4=CC(=O)C=CC4(C)C3(F)C(O)CC21C (stereo not given) | inconclusive: 9.34 µM [cytotoxic] | inconclusive: 9.34 µM [cytotoxic] | inconclusive: 4.68 µM [cytotoxic] | inconclusive: 11.8 µM [cytotoxic] | – | inconclusive: 8.33 µM [cytotoxic] | – | – | – | –
5 | COc1cc2c3c(n(CCCn4ccnc4)c(=O)c2cc1OC)-c1cc2c(cc1C3=O)OCO2 | inconclusive: 0.0166 µM [cytotoxic] | inconclusive: 0.372 µM [cytotoxic] | inconclusive: 0.59 µM [cytotoxic] | inconclusive: 0.132 µM [cytotoxic] | – | inconclusive: 0.0934 µM | – | – | – | –
6 | CCS(=O)(=O)c1ccc2oc(-c3ccc4ccccc4c3)nc2c1 | – | – | inconclusive: 4.68 µM [cytotoxic] | inconclusive: 37.2 µM [cytotoxic] | inactive | – | inactive | inactive | – | –
7 | CC[C@@]1(O)C(=O)OCc2c1cc1n(c2=O)Cc2c-1nc1ccccc1c2CCNC(C)C | active: 0.00742 µM | inconclusive: 1.86 µM [cytotoxic] | inconclusive: 0.0833 µM [cytotoxic] | inconclusive: 0.209 µM [cytotoxic] | inactive | – | – | – | – | –
8 | CC/C(=C(/c1ccc(/C=C/C(=O)O)cc1)c1ccc2[nH]ncc2c1)c1ccc(F)cc1Cl | inconclusive: 23.5 µM [cytotoxic] | inconclusive: 23.5 µM [cytotoxic] | inconclusive: 18.6 µM [cytotoxic] | active: 26.3 µM | – | inconclusive: 26.3 µM [cytotoxic] | – | – | – | –
9 | O=c1ncccn1[C@@H]1O[C@H](CO)[C@@H](O)[C@H]1O | inconclusive: 16.6 µM [cytotoxic] | – | – | inconclusive: 3.72 µM [cytotoxic] | inactive | – | – | inactive | inactive | –
10 | CS(=O)(=O)c1ccc(-c2cnc(NCc3ccco3)n3cnnc23)cc1 | inconclusive: 20.9 µM [cytotoxic] | inconclusive: 18.6 µM [cytotoxic] | inconclusive: 37.2 µM [cytotoxic] | active: 20.9 µM | – | inconclusive: 37.2 µM | – | – | – | –
11 | Nc1nccc(-c2c(-c3ccc(F)cc3)ncn2C2CCCCC2)n1 | inconclusive: 26.3 µM [cytotoxic] | – | inconclusive: 37.2 µM [cytotoxic] | – | inactive | – | – | inactive | – | inactive
12 | CCNCCc1ccc(CN(CC)c2cc(OC)ccc2[C@@H]2CCc3cc(O)ccc3C2)cc1 | inconclusive: 7.42 µM [cytotoxic] | active: 7.42 µM | active: 8.33 µM | active: 5.25 µM | – | active: 3.32 µM | – | – | – | –
13 | CNC(=O)c1c(C)oc2cc(Oc3ncnc4cc(OC)c(OC)cc34)ccc12 | inconclusive: 4.68 µM [cytotoxic] | active: 9.34 µM | active: 6.61 µM | inconclusive: 3.32 µM [cytotoxic] | – | inconclusive: 4.68 µM [cytotoxic] | – | – | – | –
14 | O=C(O)/C(S)=C/c1ccc(I)cc1 | – | – | – | inconclusive: 8.33 µM [cytotoxic] | – | inconclusive: 9.34 µM | inactive | inactive | inactive | –
15 | Cc1sc2c(c1C)C(c1ccc(Cl)cc1)=N[C@@H](CC(=O)Nc1ccc(OCCOCCOCCOCCNc3cccc4c3C(=O)N(C3CCC(=O)NC3=O)C4=O)cc1)c1nnc(C)n1-2 (stereo not given in full) | inconclusive: 0.0209 µM [cytotoxic] | inconclusive: 0.0263 µM [cytotoxic] | inconclusive: 0.0166 µM [cytotoxic] | inconclusive: 0.0166 µM [cytotoxic] | – | inconclusive: 18.6 µM | – | – | – | –
16 | N#Cc1ccnc(N2C(=O)CC[C@H]2C(=O)N(c2cncc(F)c2)[C@H](C(=O)NC2CC(F)(F)C2)c2ccccc2Cl)c1 | – | – | – | inconclusive: 0.00105 µM | inactive | – | inactive | inactive | inactive | –
17 | Cc1noc(C)c1-c1ccc(-c2cc(C(N)=O)c(NC(N)=O)s2)c(O[C@H]2CCNC2)c1 | inconclusive: 0.00105 µM [cytotoxic] | inconclusive: 37.2 µM [cytotoxic] | inconclusive: 29.5 µM [cytotoxic] | inconclusive: 29.5 µM [cytotoxic] | – | inconclusive: 23.5 µM [cytotoxic] | – | – | – | –
18 | COc1cc(S(C)(=O)=O)ccc1Nc1nc2ccc(-c3ccc(NC(=O)[C@H](C)c4ccc(F)cc4)cc3)cn2n1 | inconclusive: 0.661 µM [cytotoxic] | inconclusive: 3.72 µM [cytotoxic] | inconclusive: 4.68 µM [cytotoxic] | inconclusive: 2.09 µM [cytotoxic] | – | inconclusive: 2.35 µM [cytotoxic] | – | – | – | –
19 | CC1(C)CC[C@]2(C(=O)O)CC[C@]3(C)C(=CC[C@@H]4[C@@]5(C)C[C@@H](O)[C@H](O)C(C)(C)[C@@H]5CC[C@]43C)[C@@H]2C1 | inconclusive: 20.9 µM [cytotoxic] | inconclusive: 33.2 µM [cytotoxic] | active: 20.9 µM | inconclusive: 26.3 µM [cytotoxic] | – | inconclusive: 23.5 µM [cytotoxic] | – | – | – | –
20 | COc1cc2c(NC3CCN(C4CCCCC4)CC3)nc(N3CCCN(C(C)C)CC3)nc2cc1OCCCN1CCCCC1 | inconclusive: 16.6 µM [cytotoxic] | inconclusive: 18.6 µM [cytotoxic] | inconclusive: 16.6 µM [cytotoxic] | inconclusive: 26.3 µM [cytotoxic] | – | active: 5.9 µM | – | – | – | –
21 | C=CC(=O)N[C@H]1CCOC[C@H]1Nc1ncc2cc(-c3c(Cl)c(OC)cc(OC)c3Cl)ccc2n1 | inconclusive: 26.3 µM [cytotoxic] | inconclusive: 1.32 µM [cytotoxic] | inconclusive: 16.6 µM [cytotoxic] | inconclusive: 14.8 µM [cytotoxic] | inactive | – | – | – | – | –
22 | O=C(Nc1cccnn1)N1CCC(=Cc2cccc(Oc3ccc(C(F)(F)F)cn3)c2)CC1 | inconclusive: 0.00118 µM | inconclusive: 37.2 µM [cytotoxic] | inconclusive: 9.34 µM [cytotoxic] | inconclusive: 20.9 µM [cytotoxic] | – | inconclusive: 23.5 µM [cytotoxic] | – | – | – | –
23 | COc1nnc2ccc(N3CCC(c4ccc(OCCN5CCN(C)C(=O)[C@H]5C)cc4)CC3)nn12 | inconclusive: 1.48 µM [cytotoxic] | inconclusive: 0.0661 µM [cytotoxic] | inconclusive: 0.0468 µM [cytotoxic] | inconclusive: 1.86 µM [cytotoxic] | inactive | – | – | – | – | –
24 | CC(=O)N1c2ccc(-c3ccc(C(=O)O)cc3)cc2[C@H](Nc2ccc(Cl)cc2)C[C@@H]1C | inconclusive: 0.186 µM [cytotoxic] | inconclusive: 5.25 µM [cytotoxic] | inconclusive: 1.66 µM [cytotoxic] | inconclusive: 18.6 µM [cytotoxic] | – | inconclusive: 11.8 µM [cytotoxic] | – | – | – | –
25 | CC[C@@](C)(Nc1ccnc(-c2c[nH]c3ncccc23)n1)C(=O)NCC(F)(F)F | inconclusive: 23.5 µM [cytotoxic] | inconclusive: 37.2 µM [cytotoxic] | inconclusive: 23.5 µM [cytotoxic] | inconclusive: 20.9 µM [cytotoxic] | – | inconclusive: 18.6 µM [cytotoxic] | – | – | – | –
26 | C[C@H](Nc1ncnc2nc[nH]c12)c1cc2cccc(Cl)c2c(=O)n1-c1ccccc1 | inconclusive: 3.72 µM [cytotoxic] | inconclusive: 37.2 µM [cytotoxic] | inconclusive: 18.6 µM [cytotoxic] | inconclusive: 26.3 µM [cytotoxic] | – | inconclusive: 2.95 µM [cytotoxic] | – | – | – | –
27 | CCCc1cc(C)[nH]c(=O)c1CNC(=O)c1cc(-c2ccnc(N3CCN(C)CC3)c2)cc2c1cnn2C(C)C | – | – | – | inconclusive: 37.2 µM [cytotoxic] | – | inconclusive: 37.2 µM [cytotoxic] | inactive | inactive | inactive | –
28 | C/C(=C\C(=O)Nc1ccccc1C(=O)O)c1ccc2ccccc2c1 | inconclusive: 23.5 µM [cytotoxic] | inconclusive: 37.2 µM [cytotoxic] | – | inconclusive: 1.86 µM [cytotoxic] | – | inconclusive: 0.00105 µM [cytotoxic] | – | – | inactive | –

6 of these compounds, reformatted:

| Row | Compound | AC50 [1] | AC50 [2] | AC50 [3] | AC50 [4] | outcome [5] | IC50 [5] | outcome [1] | outcome [2] | outcome [3] | outcome [4] |
| --- | --- | --- | --- | --- | --- | --- | --- | --- | --- | --- | --- |
| 10 | CS(=O)(=O)c1ccc(-c2cnc(NCc3ccco3)n3cnnc23)cc1 | inconclusive: 20.9 µM [cytotoxic] | inconclusive: 18.6 µM [cytotoxic] | inconclusive: 37.2 µM [cytotoxic] | active: 20.9 µM | – | inconclusive: 37.2 µM | – | – | – | – |
| 12 | CCNCCc1ccc(CN(CC)c2cc(OC)ccc2[C@@H]2CCc3cc(O)ccc3C2)cc1 | inconclusive: 7.42 µM [cytotoxic] | active: 7.42 µM | active: 8.33 µM | active: 5.25 µM | – | active: 3.32 µM | – | – | – | – |
| 13 | CNC(=O)c1c(C)oc2cc(Oc3ncnc4cc(OC)c(OC)cc34)ccc12 | inconclusive: 4.68 µM [cytotoxic] | active: 9.34 µM | active: 6.61 µM | inconclusive: 3.32 µM [cytotoxic] | – | inconclusive: 4.68 µM [cytotoxic] | – | – | – | – |
| 16 | N#Cc1ccnc(N2C(=O)CC[C@H]2C(=O)N(c2cncc(F)c2)[C@H](C(=O)NC2CC(F)(F)C2)c2ccccc2Cl)c1 | – | – | – | inconclusive: 0.00105 µM | inactive | – | inactive | inactive | inactive | – |
| 21 | C=CC(=O)N[C@H]1CCOC[C@H]1Nc1ncc2cc(-c3c(Cl)c(OC)cc(OC)c3Cl)ccc2n1 | inconclusive: 26.3 µM [cytotoxic] | inconclusive: 1.32 µM [cytotoxic] | inconclusive: 16.6 µM [cytotoxic] | inconclusive: 14.8 µM [cytotoxic] | inactive | – | – | – | – | – |
| 28 | C/C(=C\C(=O)Nc1ccccc1C(=O)O)c1ccc2ccccc2c1 | inconclusive: 23.5 µM [cytotoxic] | inconclusive: 37.2 µM [cytotoxic] | – | inconclusive: 1.86 µM [cytotoxic] | – | inconclusive: 0.00105 µM [cytotoxic] | – | – | inactive | – |
